Laboratory results reported in PubChem BioAssay AID652104 (National Center for Advancing Translational Sciences (NCATS), 2013).
In all, about 410,000 compounds went through this assay and about 7,200 (1.8%) were called active. Listed are the inconclusive results; actives and inactives stand elsewhere. Calls come from the whole dose curve; as a rule, active = well fitted activation curve with a large enough effect; inconclusive = small, poorly fitted or top-dose-only effect, or another doubt; inactive = no such curve, though single readings can be large or run the other way.

Assay: qHTS of TDP-43 Inhibitors; note: nearly all actives have a fitted effect of over 50% in size
Settings: TDP-43 expressing yeast growth rescue, BacTiter-Glo, 24 h
Potency is the fitted concentration of half-maximal effect.

Row | SMILES | Potency
1 | COc1ccc(CN(CCCl)CCCl)cc1Cl | inconclusive: 28.2 µM
